# Test results from patent US20050261283A1, “Methods and compositions for the treatment of graft failure” (priority 2002, published 2005).
# For at least one compound, name, drawing or mass did not settle the structure.
# Tests used:
# [1] = tested on: human aortic vascular smooth muscle cell (HASOM cells); test: PDGF-BB induced migration of human aortic vascular smooth muscle cells, Boyden chamber; format: cell-based; details: hPDGF-BB 20 ng/ml, 48 h pre-treatment, 12 h migration, FIG. 12
# Protocol: The cells were then cultured in the presence of these agents for forty-eight hours prior to the migration assay. […] Each well contained an insert with a polycarbonate filter having 8 μm pores. In preparation for the migration assays, the membranes were coated with 0.1% gelatin for 8 hours, aspirated, and allowed to dry for 2 hours.
# The M-199 media containing 0.5% BSA and 20 ng/ml human PDGF-B (hPDGF-BB) was placed in the bottom Boyden chamber. Cells were incubated at 5% CO2 at 37° C. for twelve hours and the cells lying on the upper surface of the membrane were scraped off. The insert membranes were removed and the cells on the lower surface of each membrane were stained with hematoxylin. Cell migration was then quantified by counting the cells in five random high-power fields on the lower surface of the membrane. All assays were run in triplicate.
# [2] = cited from earlier work
compound,measurement,setting,value
CO[C@H]1C[C@@H]2CC[C@@H](C)[C@@](O)(O2)C(=O)C(=O)N2CCCC[C@H]2C(=O)O[C@H]([C@H](C)C[C@@H]2CC[C@@H](O)[C@H](OC)C2)CC(=O)[C@H](C)/C=C(\C)[C@@H](O)[C@@H](OC)C(=O)[C@H](C)C[C@H](C)/C=C/C=C/C=C/1C [rapamycin],inhibition of PDGF induced migration of HASOM cells,[1],potently inhibited PDGF induced migration of HASOM cells in a dose dependent manner
same,inhibition of PDGF induced migration of HASOM cells,[1]; listed as Rapamycin,inhibition of migration
same,concentrations that typically cause immunosuppression,[2],5 to 15 ng/mL
